The nature of the series: general procedure: Fmoc solid-phase peptide synthesis; Wang resin preloaded with the first amino acid unless stated otherwise (2-chlorotrityl chloride resin for homocysteine C); oxyma/DIC. As to conditions: for final HPLC purity: 220 nm.
The mark [1] stands for this setting: whole synthesis, scale of the general procedure 15 μmol.

Some peptides are written in HELM: one residue between dots, names in brackets for other building blocks, links after the first $.

In turn, “PEPTIDE1{[Tam].Y.F.P.[dC].Q.F.A.F.C}|CHEM1{[CH2]}$PEPTIDE1,CHEM1,5:R3-1:R1|PEPTIDE1,CHEM1,10:R3-1:R2$$$V2.0” returned an isolated mass (whole synthesis) of 1.9 mg. Moreover, under setting [1], the “final HPLC purity” value is on record as “over 95%” and the isolated yield is on record as 11.1% of theory.
With GFLGYFP[xQFAFC], under setting [1], the “final HPLC purity” value was “over 95%”.
As for Tam-EG4-chemerin-9, under “whole synthesis”, the isolated mass is listed as 4.8 mg. Under setting [1], the isolated yield was 18.6% of theory.
With Tam-EG(4)-YFP[xQFAWC], the “final HPLC purity” value under setting [1] is listed as “over 95%”.
In the case of [c4,C9]-chemerin-9, the isolated mass (whole synthesis) came out at 1.9 mg. Moreover, under setting [1], the isolated yield is given as 11.1% of theory.
In the case of Tam-EG(4)-YFP[xQFAFC], the “final HPLC purity” value under setting [1] is given as “over 95%”.
Turning to YFP[c(CH2)QFAFC], the isolated mass (whole synthesis) came out at 1.2 mg. For the same substance, under setting [1], the “final HPLC purity” value is on record as “over 95%” and the isolated yield is on record as 5% of theory.
Consider Tam-YFP[c(CH2)QFAFX], for which the isolated mass (whole synthesis) amounted to 1.8 mg. In addition, under setting [1], the “final HPLC purity” value is reported as “over 95%” and the isolated yield is listed as 10.2% of theory.
Take [c4,C7]-chemerin-9: the isolated mass (whole synthesis) turned out to be 1.9 mg. Also, under setting [1], the isolated yield is listed as 11.1% of theory.
On to Tam-YFP[cQFAFC], for which, under “cyclisation step”, the cyclisation yield is 31% of theory and the “final HPLC purity” value is “over 95%”.
